Assay results published in PubChem BioAssay AID292 (DTP/NCI, 2004).
The list does not hold the whole screen: it is rich in T/C values a quarter to a half above the control, in often repeated tests (any T/C) and in doses without a T/C. Further doses and runs are listed elsewhere. T/C is the treated group as % of the vehicle group. Some doses have a count of surviving animals in place of a T/C: the source holds a T/C of zero for them, seemingly a mark for toxic or unscored doses. Some survivor counts are full or nearly so, which does not show that the dose was tolerated: survival well below the control is almost never listed, so the zero probably covers shortened survival too. Counts of survivors are from the toxicity check (mostly the fifth day) where no day follows; animals may have died later. Schedules are NCI's codes, taken here to give the interval after Q, in days (D) or hours (H), and the number of doses after X. Some entries hold several experiments; the values are given in rising order. Where survival is the endpoint, the PubChem record calls one and a half times the control and up active, and a quarter to a half above the control has no call in these data; cut-offs in other NCI protocols can differ. Some T/C values carry the count of animals alive at the toxicity check (mostly the fifth day); without a count, all were alive then. Additions like (4×) count equal records among those shown.

Tested on: B6C3F1 mice, ip Sarcoma M5076, median survival T/C
Assay: NCI In Vivo Anticancer Drug Screen. Data for tumor model Sarcoma M5076 (intraperitoneal) in B6C3F1 mice
Settings: T/C endpoint: median survival time, higher T/C = longer survival
Method in brief: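 Transplantable tumour in mice; compound-treated vs vehicle-treated groups. Read-out: survival. Value = treated/control ratio.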

[1] = dose: 2.5 mg/kg/injection, schedule: Q04DX004 (ip), vehicle: sodium bicarbonate
[2] = dose: 10.0 mg/kg/injection, schedule: Q04DX005 (ip), vehicle: sodium bicarbonate
[3] = dose: 20.0 mg/kg/injection, schedule: Q04DX005 (ip), vehicle: sodium bicarbonate
[4] = dose: 40.0 mg/kg/injection, schedule: Q04DX004 (ip), vehicle: sodium bicarbonate
[5] = dose: 40.0 mg/kg/injection, schedule: Q04DX005 (ip), vehicle: sodium bicarbonate

Compound: CC(=O)C1C(=O)C(=O)N(c2cc(C)ccc2O)C1=O (stereo not given)
- survivor count (dose: 200.0 mg/kg/injection, schedule: Q04DX004 (ip), vehicle: Klucel + Tween-80): 4 of 10 on day 14
- survivor count (dose: 400.0 mg/kg/injection, schedule: Q04DX004 (ip), vehicle: Klucel + Tween-80): 3 of 10 on day 14
- survivor count (dose: 800.0 mg/kg/injection, schedule: Q04DX004 (ip), vehicle: Klucel + Tween-80): 0 of 10 on day 14

Compound: CN(Cc1cnc2nc(N)nc(N)c2n1)c1ccc(C(=O)N[C@@H](CCC(=O)O)C(=O)O)cc1
- T/C [1]: 91, 93, 100 (2×), 107, 116 % of control
- survivor count [1]: 7 of 10 on day 14
- T/C (dose: 2.5 mg/kg/injection, schedule: Q04DX005 (ip), vehicle: sodium bicarbonate): 98, 100, 103, 108 % of control
- T/C (dose: 5.0 mg/kg/injection, schedule: Q04DX004 (ip), vehicle: sodium bicarbonate): 95 (2×), 97 (2×), 100 (2×), 108 % of control
- T/C (dose: 5.0 mg/kg/injection, schedule: Q04DX005 (ip), vehicle: sodium bicarbonate): 93, 100 (2×), 114 % of control
- T/C (dose: 10.0 mg/kg/injection, schedule: Q04DX004 (ip), vehicle: sodium bicarbonate): 95, 97, 100, 105, 108, 110, 136 % of control
- T/C [2]: 96, 97, 107 % of control
- survivor count [2]: 10 of 10 on day 9
- T/C (dose: 20.0 mg/kg/injection, schedule: Q04DX004 (ip), vehicle: sodium bicarbonate): 89, 92, 93, 95, 96 [8 of 10 alive on day 14], 100, 112 % of control
- T/C [3]: 97, 104, 132 % of control
- survivor count [3]: 10 of 10 on day 9
- T/C [4]: 90 [8 of 10 alive on day 14], 100, 101, 110, 140 % of control
- survivor count [4]: 6 of 10 on day 14 and 7 of 10 on day 9
- T/C [5]: 86, 91, 127 % of control
- survivor count [5]: 4 of 10 on day 9

Compound: O=S1(=O)C(c2ccc(F)cc2)=C(O)c2cc3ccccc3nc21
- survivor count (dose: 137.5 mg/kg/injection, schedule: Q04DX004 (ip), vehicle: sodium bicarbonate): 10 of 10 on day 14
- survivor count (dose: 275.0 mg/kg/injection, schedule: Q04DX004 (ip), vehicle: sodium bicarbonate): 6 of 10 on day 14

Compound: CCn1c2ccccc2c2cc(N=Nc3cc4ccccc4cc3O)ccc21
- survivor count (dose: 87.5 mg/kg/injection, schedule: Q04DX004 (ip), vehicle: Klucel (hydroxypropylcellulose) (HPC)): 10 of 10 on day 14
- survivor count (dose: 175.0 mg/kg/injection, schedule: Q04DX004 (ip), vehicle: Klucel (hydroxypropylcellulose) (HPC)): 10 of 10 on day 14
- survivor count (dose: 350.0 mg/kg/injection, schedule: Q04DX004 (ip), vehicle: Klucel (hydroxypropylcellulose) (HPC)): 7 of 9 on day 14
- survivor count (dose: 700.0 mg/kg/injection, schedule: Q04DX004 (ip), vehicle: Klucel (hydroxypropylcellulose) (HPC)): 9 of 10 on day 14

Compound: O=NNc1cnccn1
- T/C (dose: 25.0 mg/kg/injection, schedule: Q04DX004 (ip), vehicle: water): 126 and 129 % of control
- survivor count (dose: 100.0 mg/kg/injection, schedule: Q04DX004 (ip), vehicle: water): 7 of 10 on day 14
- survivor count (dose: 200.0 mg/kg/injection, schedule: Q04DX004 (ip), vehicle: water): 0 of 10 on day 14

Compound: O=C1NCC(Br)C(=O)N1 (stereo not given)
- survivor count (dose: 800.0 mg/kg/injection, schedule: Q04DX004 (ip), vehicle: saline + Tween-80 + alcohol): 4 of 10 on day 14

Compound: O=C1C2CC3CC1CC(Cl)(C3)C2
- survivor count (dose: 100.0 mg/kg/injection, schedule: Q04DX004 (ip), vehicle: saline with Tween-80): 7 of 10 on day 14
- survivor count (dose: 200.0 mg/kg/injection, schedule: Q04DX004 (ip), vehicle: saline with Tween-80): 0 of 10 on day 14
